Values from PubChem BioAssay AID1259327 (Drosophila RNAi Screening Center, 2017)
Aim: 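Baseline ATP after transmembrane-protein gene knock-down with water vehicle only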. Cell system: Drosophila S2R+ cells. Knock-down reagent: long dsRNA against Drosophila genes. Time to read-out: 5 days (water added on day 4, read one day later). Treatment: water added as vehicle, no metal, one day before read-out. Measurement: 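Luciferase ATP signal per well, normalised to plate mean, duplicate average converted to z-score across plates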. Scale: ATP z-score: higher = more total ATP than typical wells; ATP luminescence: higher = more total ATP. Active means: 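Called active when the ATP z-score exceeds 1.5 or falls below -1.5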. Calls: active = hit: ATP up or down; inactive = no clear ATP change.
The whole screen tested about 3,100 reagents; this is a random part of them. 378 of all reagents (12%) count as active. 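Hits include both directions; z-score sign shows ATP rise or fall; raw luminescence values are not plate-normalised.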 The numbers tell different reagents against one gene apart. A plus sign joins genes that one reagent is predicted to hit. Not given: the amount of reagent.

Gene | reagent | ATP z-score, duplicate mean | ATP luminescence, replicate 1 (RLU) | ATP luminescence, replicate 2 (RLU) | Outcome
CG8028 | 1 | 0.134 | 7.30e5 | 7.86e5 | inactive
CG13160 | 1 | 1.11 | 7.34e5 | 7.06e5 | inactive
CG3397 | 1 | -0.708 | 6.51e5 | 6.14e5 | inactive
CG3397 | 2 | 2 | 5.48e5 | 6.57e5 | active
ZnT33D | 1 | 0.657 | 8.02e5 | 7.90e5 | inactive
ZnT33D | 2 | 0.0962 | 4.31e5 | 4.86e5 | inactive
nAChRalpha3 | 1 | -1.14 | 5.99e5 | 5.40e5 | inactive
nAChRalpha3 | 2 | -0.207 | 8.08e5 | 8.41e5 | inactive
Nup50 | 1 | -0.343 | 7.22e5 | 6.66e5 | inactive
Nup50 | 2 | -0.699 | 9.46e5 | 1.11e6 | inactive
nAChRalpha6 | 1 | 1.05 | 8.95e5 | 8.17e5 | inactive
nAChRalpha6 | 2 | -0.198 | 4.36e5 | 4.96e5 | inactive
Ir11a | 1 | -0.0328 | 6.27e5 | 6.72e5 | inactive
Ir11a | 2 | -0.793 | 4.19e5 | 3.82e5 | inactive
CG15211 | 1 | -1.51 | 4.25e5 | 7.25e5 | active
CG15211 | 2 | 0.663 | 5.23e5 | 5.28e5 | inactive
CG13016 | 1 | -0.439 | 5.70e5 | 5.90e5 | inactive
CG13016 | 2 | -0.251 | 5.68e5 | 5.56e5 | inactive
CG12121 | 1 | 1.03 | 8.93e5 | 7.53e5 | inactive
CG12121 | 2 | 0.186 | 5.14e5 | 4.40e5 | inactive
CG12990 | 1 | -0.114 | 7.02e5 | 7.60e5 | inactive
Zip42C.1 | 1 | -0.212 | 5.77e5 | 6.24e5 | inactive
alpha-Catr | 1 | 0.0693 | 8.25e5 | 1.03e6 | inactive
Gr22f | 1 | 0.0683 | 7.34e5 | 7.67e5 | inactive
Gr22f | 2 | -1.05 | 8.75e5 | 9.21e5 | inactive
Nemp | 1 | -0.77 | 5.88e5 | 6.63e5 | inactive
Nemp | 2 | -0.179 | 8.91e5 | 1.14e6 | inactive
Oatp33Eb | 1 | -0.161 | 7.19e5 | 6.99e5 | inactive
Oatp33Eb | 2 | 0.0299 | 4.08e5 | 5.28e5 | inactive
gny | 1 | 1.44 | 5.65e5 | 5.96e5 | inactive
gny | 2 | -0.723 | 4.74e5 | 3.56e5 | inactive
fz | 1 | -0.46 | 7.99e5 | 8.70e5 | inactive
fz | 2 | -0.782 | 5.18e5 | 5.09e5 | inactive
Hip14 | 1 | 0.137 | 7.27e5 | 7.65e5 | inactive
trpl | 1 | -1.17 | 4.93e5 | 5.34e5 | inactive
trpl | 2 | -1.25 | 5.26e5 | 4.21e5 | inactive
Or83a + CG1172 | 1 | 1.72 | 1.02e6 | 1.21e6 | active
Or83a + CG1172 | 2 | 0.8 | 6.00e5 | 7.11e5 | inactive
COX7A | 1 | -1.81 | 2.52e5 | 4.79e5 | active
ptc | 1 | -0.461 | 7.25e5 | 6.57e5 | inactive
ptc | 2 | 2.51 | 8.39e5 | 8.56e5 | active
Icmt | 1 | -0.559 | 8.48e5 | 7.98e5 | inactive
Icmt | 2 | -1.65 | 3.82e5 | 5.11e5 | active
CG1824 | 1 | 1.81 | 5.53e5 | 7.02e5 | active
CG1824 | 2 | -0.0541 | 5.07e5 | 4.15e5 | inactive
CG14855 | 1 | 0.684 | 3.12e5 | 8.80e5 | inactive
CG14855 | 2 | -0.284 | 4.45e5 | 4.24e5 | inactive
VhaAC45 | 1 | 0.69 | 7.99e5 | 8.11e5 | inactive
VhaAC45 | 2 | 1.68 | 7.20e5 | 7.36e5 | active
CG14194 | 1 | 1.8 | 7.92e5 | 1.09e6 | active
bdg | 1 | 0.0404 | 7.10e5 | 7.61e5 | inactive
Der-1 | 1 | -0.528 | 4.55e5 | 4.28e5 | inactive
Der-1 | 2 | -0.182 | 3.82e5 | 5.27e5 | inactive
Ca-alpha1D | 1 | -0.158 | 4.66e5 | 4.70e5 | inactive
Ca-alpha1D | 2 | -0.00244 | 4.54e5 | 4.77e5 | inactive
Jwa | 1 | 0.996 | 5.14e5 | 5.86e5 | inactive
Jwa | 2 | -0.57 | 9.84e5 | 1.02e6 | inactive
CG32986 | 1 | -0.396 | 7.21e5 | 6.48e5 | inactive
CG32986 | 2 | -0.783 | 4.25e5 | 3.98e5 | inactive
CG13869 + CG11099 | 1 | -0.12 | 9.03e5 | 1.00e6 | inactive
PGRP-SC2 | 1 | -0.184 | 6.96e5 | 7.50e5 | inactive
PGRP-SC2 | 2 | -1.06 | 6.95e5 | 7.43e5 | inactive
Ir25a | 1 | 0.414 | 7.74e5 | 7.66e5 | inactive
Ir25a | 2 | 0.0428 | 7.88e5 | 9.18e5 | inactive
Sys1 + Dhod | 1 | -1.82 | 3.27e5 | 3.37e5 | active
CG10019 | 1 | -0.565 | 7.52e5 | 8.09e5 | inactive
CG3829 | 1 | 0.896 | 8.48e5 | 8.05e5 | inactive
Or47b | 1 | -0.427 | 5.01e5 | 6.61e5 | inactive
Or47b | 2 | 0.333 | 5.02e5 | 4.73e5 | inactive

An excerpt from above, limited to “ATP luminescence, replicate 2 (RLU)”.
trpl #2 = 4.21e5
Or83a + CG1172 #1 = 1.21e6
Or83a + CG1172 #2 = 7.11e5
COX7A = 4.79e5
ptc #1 = 6.57e5
ptc #2 = 8.56e5
Icmt #1 = 7.98e5
